Test [1] has as its target T1, Rad50-HA (Rad50, hemagglutinin-tagged at its native genomic locus) (S. cerevisiae) (UniProt P12753).
T1 sequence: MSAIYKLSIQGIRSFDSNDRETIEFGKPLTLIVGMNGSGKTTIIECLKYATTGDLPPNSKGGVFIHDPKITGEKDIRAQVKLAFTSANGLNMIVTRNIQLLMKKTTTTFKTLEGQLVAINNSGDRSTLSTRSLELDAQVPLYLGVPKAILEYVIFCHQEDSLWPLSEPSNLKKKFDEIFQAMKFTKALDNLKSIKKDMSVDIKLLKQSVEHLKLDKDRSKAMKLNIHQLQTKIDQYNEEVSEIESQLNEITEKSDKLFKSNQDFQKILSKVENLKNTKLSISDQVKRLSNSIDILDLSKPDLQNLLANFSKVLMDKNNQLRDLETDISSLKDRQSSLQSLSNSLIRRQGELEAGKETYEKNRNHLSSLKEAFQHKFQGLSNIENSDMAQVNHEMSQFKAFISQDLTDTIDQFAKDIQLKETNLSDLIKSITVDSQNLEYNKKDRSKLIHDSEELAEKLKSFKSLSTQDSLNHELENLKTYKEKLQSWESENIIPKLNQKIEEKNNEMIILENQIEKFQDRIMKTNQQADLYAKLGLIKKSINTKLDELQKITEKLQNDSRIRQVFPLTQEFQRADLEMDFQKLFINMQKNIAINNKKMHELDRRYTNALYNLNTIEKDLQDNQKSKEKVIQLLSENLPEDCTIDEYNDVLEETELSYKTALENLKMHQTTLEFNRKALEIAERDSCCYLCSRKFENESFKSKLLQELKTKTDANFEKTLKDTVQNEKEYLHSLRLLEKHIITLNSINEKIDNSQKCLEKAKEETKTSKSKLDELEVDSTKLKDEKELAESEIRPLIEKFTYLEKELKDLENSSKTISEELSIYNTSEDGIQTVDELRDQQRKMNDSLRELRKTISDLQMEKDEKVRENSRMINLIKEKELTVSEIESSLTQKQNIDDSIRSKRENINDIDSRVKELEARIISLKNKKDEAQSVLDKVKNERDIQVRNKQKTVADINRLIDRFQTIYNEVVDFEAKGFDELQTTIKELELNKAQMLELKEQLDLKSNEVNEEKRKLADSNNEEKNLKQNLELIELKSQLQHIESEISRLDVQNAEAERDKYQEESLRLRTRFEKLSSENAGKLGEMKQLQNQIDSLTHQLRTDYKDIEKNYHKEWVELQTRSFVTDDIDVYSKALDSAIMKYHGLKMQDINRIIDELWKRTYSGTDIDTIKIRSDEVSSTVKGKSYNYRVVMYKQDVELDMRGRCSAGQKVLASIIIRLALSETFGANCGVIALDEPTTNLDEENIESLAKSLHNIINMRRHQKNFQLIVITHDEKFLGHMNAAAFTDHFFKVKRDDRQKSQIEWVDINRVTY
Nature of the test: co-IP; Rad50-HA immunoprecipitated with anti-HA (12CA5) and Protein G-Dynabeads from total yeast protein extracts, 2 h at 4°C; 50 mM HEPES pH 7.5, 140 mM NaCl, 1 mM EDTA, 10% glycerol; blot with anti-Myc (9E10).

Amino acid sequences for entries named in this document (tags omitted).
UniProt P38110: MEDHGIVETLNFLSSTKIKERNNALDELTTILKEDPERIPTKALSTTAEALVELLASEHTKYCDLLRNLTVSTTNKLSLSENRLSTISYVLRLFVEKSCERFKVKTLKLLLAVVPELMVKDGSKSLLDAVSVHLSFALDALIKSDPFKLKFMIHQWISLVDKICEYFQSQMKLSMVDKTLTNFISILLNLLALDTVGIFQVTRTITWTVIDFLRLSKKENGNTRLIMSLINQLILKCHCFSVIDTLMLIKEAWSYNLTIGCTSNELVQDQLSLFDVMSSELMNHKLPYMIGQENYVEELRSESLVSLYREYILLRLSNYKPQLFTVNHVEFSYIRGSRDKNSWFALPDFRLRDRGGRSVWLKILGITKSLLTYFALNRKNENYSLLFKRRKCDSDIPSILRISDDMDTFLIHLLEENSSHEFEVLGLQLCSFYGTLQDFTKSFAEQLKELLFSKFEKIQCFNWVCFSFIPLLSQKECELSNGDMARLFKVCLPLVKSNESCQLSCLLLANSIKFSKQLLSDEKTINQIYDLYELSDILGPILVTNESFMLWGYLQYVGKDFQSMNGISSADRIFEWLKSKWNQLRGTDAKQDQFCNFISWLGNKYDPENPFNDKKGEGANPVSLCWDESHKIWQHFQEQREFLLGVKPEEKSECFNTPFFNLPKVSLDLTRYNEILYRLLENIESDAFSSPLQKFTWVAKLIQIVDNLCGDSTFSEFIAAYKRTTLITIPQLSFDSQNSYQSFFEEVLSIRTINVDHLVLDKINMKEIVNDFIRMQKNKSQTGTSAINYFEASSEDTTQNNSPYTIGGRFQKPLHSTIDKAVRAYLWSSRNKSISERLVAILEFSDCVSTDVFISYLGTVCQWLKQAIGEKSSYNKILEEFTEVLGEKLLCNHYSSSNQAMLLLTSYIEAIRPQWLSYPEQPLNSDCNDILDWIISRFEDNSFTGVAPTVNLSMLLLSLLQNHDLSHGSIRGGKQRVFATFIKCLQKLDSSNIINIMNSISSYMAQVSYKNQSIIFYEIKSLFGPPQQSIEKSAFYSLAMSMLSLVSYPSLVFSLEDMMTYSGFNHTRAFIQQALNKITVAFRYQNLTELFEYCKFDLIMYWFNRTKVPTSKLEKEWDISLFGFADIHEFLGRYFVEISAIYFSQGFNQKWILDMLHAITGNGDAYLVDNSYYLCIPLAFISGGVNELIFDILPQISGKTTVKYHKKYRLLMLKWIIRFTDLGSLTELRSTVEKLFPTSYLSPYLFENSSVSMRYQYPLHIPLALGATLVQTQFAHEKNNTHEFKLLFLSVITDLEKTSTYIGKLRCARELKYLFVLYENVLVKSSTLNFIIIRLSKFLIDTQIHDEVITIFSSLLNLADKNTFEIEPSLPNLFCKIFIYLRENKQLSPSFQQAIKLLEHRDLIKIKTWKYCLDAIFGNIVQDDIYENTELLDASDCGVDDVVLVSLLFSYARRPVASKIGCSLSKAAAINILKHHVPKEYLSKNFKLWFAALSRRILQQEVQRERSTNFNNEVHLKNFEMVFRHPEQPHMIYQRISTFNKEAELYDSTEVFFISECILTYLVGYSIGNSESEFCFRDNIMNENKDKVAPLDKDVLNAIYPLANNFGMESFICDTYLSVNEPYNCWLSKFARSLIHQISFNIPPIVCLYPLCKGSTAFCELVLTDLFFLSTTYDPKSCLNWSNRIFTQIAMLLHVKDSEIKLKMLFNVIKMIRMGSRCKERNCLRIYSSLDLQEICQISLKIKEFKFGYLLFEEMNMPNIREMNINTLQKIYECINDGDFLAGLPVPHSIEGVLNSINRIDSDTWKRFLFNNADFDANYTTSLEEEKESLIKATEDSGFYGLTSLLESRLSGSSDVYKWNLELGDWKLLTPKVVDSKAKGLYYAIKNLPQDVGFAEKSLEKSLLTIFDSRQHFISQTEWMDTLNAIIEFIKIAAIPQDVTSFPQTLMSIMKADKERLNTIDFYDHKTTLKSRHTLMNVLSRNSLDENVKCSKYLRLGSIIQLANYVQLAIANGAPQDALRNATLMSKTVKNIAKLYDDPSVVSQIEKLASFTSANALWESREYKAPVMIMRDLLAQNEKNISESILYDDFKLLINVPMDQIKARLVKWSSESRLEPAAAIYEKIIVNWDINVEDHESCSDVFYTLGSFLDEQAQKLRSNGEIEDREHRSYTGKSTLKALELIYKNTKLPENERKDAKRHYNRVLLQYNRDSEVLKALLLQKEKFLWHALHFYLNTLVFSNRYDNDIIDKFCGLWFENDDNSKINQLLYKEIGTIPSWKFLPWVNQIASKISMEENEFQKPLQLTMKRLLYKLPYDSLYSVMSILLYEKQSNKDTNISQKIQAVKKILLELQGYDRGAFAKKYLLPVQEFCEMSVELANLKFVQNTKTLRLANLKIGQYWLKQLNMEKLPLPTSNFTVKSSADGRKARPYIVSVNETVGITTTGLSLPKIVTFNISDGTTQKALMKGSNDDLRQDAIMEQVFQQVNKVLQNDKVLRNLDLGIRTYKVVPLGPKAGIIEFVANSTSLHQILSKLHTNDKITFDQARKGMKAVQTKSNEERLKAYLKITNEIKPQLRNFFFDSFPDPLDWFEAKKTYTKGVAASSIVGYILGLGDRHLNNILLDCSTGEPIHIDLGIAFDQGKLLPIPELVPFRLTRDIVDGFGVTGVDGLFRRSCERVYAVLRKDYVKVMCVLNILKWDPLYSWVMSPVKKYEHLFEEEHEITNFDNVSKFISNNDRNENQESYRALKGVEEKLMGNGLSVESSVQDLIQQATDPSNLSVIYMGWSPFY

In test [2] the target is Tel1-HA (HA-tagged Tel1) (S. cerevisiae) (UniProt P38110). The test can be described thus: co-IP; Tel1-HA immunoprecipitated with anti-HA (12CA5) and Protein G-Dynabeads from total yeast protein extracts of wild-type and rif2-S6E cells, 2 h at 4°C; 50 mM HEPES pH 7.5, 140 mM NaCl, 1 mM EDTA, 10% glycerol; blot with anti-Myc (9E10).

Results are given in words; binding and its absence hold for the method and conditions named. In cells and extracts the contact can be indirect. Some results given as binding are weak or reduced against the parent protein; the word gives no strength. Tags and fused reporters may be left off the sequences shown.

B1: Rif2-Myc (wild-type Rif2, epitope-tagged at its native genomic locus) (protein, UniProt Q06208 1-395)
chain: MEHVDSDFAPIRRSKKVVDSDKIVKAISDDLEQKNFTVLRKLNLVPIKKSVSSPKVCKPSPVKERVDHVFYQKFKSMALQELGTNYLSISYVPSLSKFLSKNLRSMKNCIVFFDKVEHIHQYAGIDRAVSETLSLVDINVVIIEMNDYLMKEGIQSSKSKECIESMGQASYSGQLDFEASEKPSNHTSDLMMMVMRKINNDESIDHIVYFKFEQLDKLSTSTIIEPSKLTEFINVLSVLEKSNNIAFKVLIYSNNVSISSLLSTSLKKKLNTKYTVFEMPILTCAQEQEYLKKMIKFTFDSGSKLLQSYNSLVTCQLNNKESNLAIFFEFLKVFPHPFTYLFNAYTEIIVQSRTFDELLDKIRNRLTIKNYPHSAYNFKKNQRLPLKLTRKVHDR
In the case of B1, the binding entry in test [1] is “binds”.

B2: Rad50-Myc (Myc-tagged Rad50) (protein, UniProt P12753 1-1312)
chain: T1 sequence
On to B2, for which the binding entry in test [2] is on record as “binds”.

Values taken from PMC10954470.
